# Assay results as given in PMC10977697 (PLOS ONE, 2024).
# Assay: peptide made by a vendor
# Settings: whole synthesis, 214 nm, TFA Salt
row,Substance,final HPLC purity
1,Gly-Cys-Asp-Gln-Gly-His-Ser-Ser-Gly-Trp-Gln-Lys-Cys-Lys-Gln- Asp-Ser-Asp-Cys-Leu-Ala-Gly-Cys-Val-Cys-Trp-Phe-Arg-Trp-His- Cys-Gly,96.30%

# Same assay, conditions: whole synthesis, 214 nm, TFA Salt, several disulfide bridges, sequence written open
row,Substance,final HPLC purity
1,ACKGVFDACTVFEVTDTGVLECCPNAVCSDKHKWCKWKL,95.54%
2,AFDCLGQCGRCDFHKLQCVMVYFIHMTKPYCNSSCTR,95.80%
3,GCEQSTWWAPCKQDSDCLAGCVCYQRWHCG,95.70%
4,GCGQQRWGGWPLCKQDSDCLAGCVCGPNGFCG,95.75%
5,GCGQTTAWEPCKQDSDCLAGCVCFMRWHCG,95.26%
6,GCMPRYGGWHCKQDSDCLAGCVCGPNGFCG,96.56%
7,GCQQRRWGGWQQCKQDSDCLAGCVCGPNGFCG,93.20%
8,GCRPRWGGWHCKQDSDCLAGCVCGPNGFCG,98.25%

# Same assay, conditions: whole synthesis, 214 nm, TFA salt, several disulfide bridges, sequence written open
row,Substance,final HPLC purity
1,GCQQRRWGGWQQCKQDSDCLAGCVCGPNGFCG,94.15%

# End groups of sequences in plain letters are not given here.
